Data as given in PubChem BioAssay AID1224830 (NIAID, 2016)

Test: 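Regulators of TLR4 signalling towards TNF-alpha in macrophage-like cells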 (primary screen)
Cell system: human THP-1 monocytic leukaemia cells, TNF dual-luciferase reporter clone, PMA-differentiated to macrophage-like cells
Reagent: siRNA pool against human genes, 50 nM
Time to read-out: LPS for 4 h, given about 3 days after siRNA transfection
Treatment: bacterial LPS (TLR4 ligand), 10 ng/ml
Measured: 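TNF firefly reporter luminescence divided by renilla, normalised to the plate median, then turned into a robust z-score for each replicate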
Direction: TNF reporter robust z-score: higher = stronger TNF reporter response to LPS
Active means: 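Each well counts as active if its z-score is over 2.8 or under -1.5; controls are left without a call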
The whole screen tested about 18,000 reagents; below is an unselected part. About 2,900 of all reagents (16%) count as active. 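Calls are made per well; low scores hint the gene aids the LPS response, high scores that it dampens it.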 A number with no mark means an inactive call. Repeated entries: four replicate wells of each siRNA pool.

| Gene | PubChem SID | TNF reporter robust z-score |
| --- | --- | --- |
| COTL1 | SID315455219 | -1.14 |
| COTL1 | SID315455219 | -1.03 |
| COTL1 | SID315455219 | -1.06 |
| CES3 | SID315455275 | 0.03 |
| CES3 | SID315455275 | -0.51 |
| CES3 | SID315455275 | 0.15 |
| CES3 | SID315455275 | 0.24 |
| MGAT4A | SID315454755 | -0.62 |
| MGAT4A | SID315454755 | 0.13 |
| MGAT4A | SID315454755 | -0.61 |
| MGAT4A | SID315454755 | -0.14 |
| TMX3 | SID315457037 | -0.75 |
| TMX3 | SID315457037 | -0.57 |
| TMX3 | SID315457037 | -0.76 |
| TMX3 | SID315457037 | -0.67 |
| GPR146 | SID315461302 | 2.55 |
| GPR146 | SID315461302 | 1.44 |
| GPR146 | SID315461302 | 2.56 |
| GPR146 | SID315461302 | 1.66 |
| OTOP1 | SID315461939 | -0.62 |
| OTOP1 | SID315461939 | -0.74 |
| OTOP1 | SID315461939 | -0.86 |
| OTOP1 | SID315461939 | 0.01 |

4 of these entries in another layout:
Gene,PubChem SID,TNF reporter robust z-score
CES3,SID315455275,0.15
CES3,SID315455275,0.24
MGAT4A,SID315454755,-0.62
MGAT4A,SID315454755,0.13

Next results follow:
| Gene | PubChem SID | TNF reporter robust z-score |
| --- | --- | --- |
| DCANP1 | SID315462162 | 2.32 |
| DCANP1 | SID315462162 | 1.88 |
| DCANP1 | SID315462162 | 2 |
| DCANP1 | SID315462162 | 0.89 |
| AQP12A | SID315464363 | 0.4 |
| AQP12A | SID315464363 | 1.3 |
| AQP12A | SID315464363 | 0.04 |
| AQP12A | SID315464363 | 0.42 |
| DDI1 | SID315464862 | -0.58 |
| DDI1 | SID315464862 | -0.43 |
| DDI1 | SID315464862 | -0.88 |
| DDI1 | SID315464862 | -1.32 |
| SLC19A3 | SID315459777 | 2.17 |
| SLC19A3 | SID315459777 | 2.23 |
| SLC19A3 | SID315459777 | 1.65 |
| SLC19A3 | SID315459777 | 2.36 |
| RPP25L | SID315462049 | 0.02 |
| RPP25L | SID315462049 | 0.54 |
| RPP25L | SID315462049 | -1.69 (active) |
| RPP25L | SID315462049 | -1.62 (active) |
| TEP1 | SID315451822 | -1.36 |
| TEP1 | SID315451822 | -0.77 |
| TEP1 | SID315451822 | -1 |
| TEP1 | SID315451822 | -0.8 |
